This is an account of results in publication doi:10.1101/2025.05.13.653593.

The target in this test is T1, murine mCherry-GSDMD (murine) (UniProt Q9D8T2).
T1 sequence: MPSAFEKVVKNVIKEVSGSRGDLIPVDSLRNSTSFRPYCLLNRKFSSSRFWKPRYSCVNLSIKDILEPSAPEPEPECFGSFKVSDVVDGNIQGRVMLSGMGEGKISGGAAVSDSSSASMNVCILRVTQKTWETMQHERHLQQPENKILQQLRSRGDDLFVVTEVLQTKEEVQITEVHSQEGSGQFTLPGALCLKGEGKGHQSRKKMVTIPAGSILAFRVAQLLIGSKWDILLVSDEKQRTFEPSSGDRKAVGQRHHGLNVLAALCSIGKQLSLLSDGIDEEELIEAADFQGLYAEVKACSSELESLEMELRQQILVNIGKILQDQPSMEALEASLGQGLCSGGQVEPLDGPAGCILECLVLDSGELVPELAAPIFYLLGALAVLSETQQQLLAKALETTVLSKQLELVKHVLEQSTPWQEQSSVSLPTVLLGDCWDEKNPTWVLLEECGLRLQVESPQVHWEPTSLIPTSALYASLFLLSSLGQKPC
Put plainly: co-IP.

No constants are given. Whether binding was seen depends on the method and setting. In cells and extracts the contact can be indirect. A result given as binding can be weak or reduced; the word gives no strength.

Consider Myc-caspase-1 (enzyme), for which the binding result is recorded as “binds”.
